Reference: PMC10709431
Results are given in words; binding and its absence hold for the method and conditions named. Binding seen in cells or lysates may run through a third protein. Some binding calls cover weakened binding; strength is not graded here. Where a sequence is shown, tags or fusion partners need not be part of it. Blank lines part the entries; values can stand above or below the binder they belong to.

The chains behind the UniProt entries cited, without tags or fusion partners.
UniProt Q13131: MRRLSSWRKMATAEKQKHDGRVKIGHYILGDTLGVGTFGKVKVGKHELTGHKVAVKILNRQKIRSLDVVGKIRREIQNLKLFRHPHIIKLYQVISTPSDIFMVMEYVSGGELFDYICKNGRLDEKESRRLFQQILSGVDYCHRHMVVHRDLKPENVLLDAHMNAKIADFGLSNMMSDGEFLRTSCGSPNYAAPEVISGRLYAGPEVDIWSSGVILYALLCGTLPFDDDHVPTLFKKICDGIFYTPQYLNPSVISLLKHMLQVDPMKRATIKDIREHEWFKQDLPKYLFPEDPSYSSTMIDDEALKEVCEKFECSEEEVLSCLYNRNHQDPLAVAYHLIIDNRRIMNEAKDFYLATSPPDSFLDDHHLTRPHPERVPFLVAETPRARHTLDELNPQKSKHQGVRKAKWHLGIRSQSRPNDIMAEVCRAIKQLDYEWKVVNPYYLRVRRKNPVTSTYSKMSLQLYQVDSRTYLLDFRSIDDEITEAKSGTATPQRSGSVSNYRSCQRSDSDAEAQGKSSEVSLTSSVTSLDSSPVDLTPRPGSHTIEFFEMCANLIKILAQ

Target: AMPKα1 in experiments shown only in supplementary figures (endogenous or transfected not stated) (UniProt Q13131)
Experiment: co-IP; co-IP of the AMPK complex (Fig. S4n); bait and constructs not shown; A375 cells with or without MMAE in Fig. S4o

binding: binds
B1: phosphomannose isomerase (PMI) (enzyme, UniProt P34949 1-423)
chain: MAAPRVFPLSCAVQQYAWGKMGSNSEVARLLASSDPLAQIAEDKPYAELWMGTHPRGDAKILDNRISQKTLSQWIAENQDSLGSKVKDTFNGNLPFLFKVLSVETPLSIQAHPNKELAEKLHLQAPQHYPDANHKPEMAIALTPFQGLCGFRPVEEIVTFLKKVPEFQFLIGDEAATHLKQTMSHDSQAVASSLQSCFSHLMKSEKKVVVEQLNLLVKRISQQAAAGNNMEDIFGELLLQLHQQYPGDIGCFAIYFLNLLTLKPGEAMFLEANVPHAYLKGDCVECMACSDNTVRAGLTPKFIDVPTLCEMLSYTPSSSKDRLFLPTRSQEDPYLSIYDPPVPDFTIMKTEVPGSVTEYKVLALDSASILLMVQGTVIASTPTTQTPIPLQRGGVLFIGANESVSLKLTEPKDLLIFRACCLL

binding: binds
B2: glucosamine-phosphate N-acetyltransferase 1 (GNPNAT1) (enzyme, UniProt Q96EK6 1-184)
chain: MKPDETPMFDPSLLKEVDWSQNTATFSPAISPTHPGEGLVLRPLCTADLNRGFFKVLGQLTETGVVSPEQFMKSFEHMKKSGDYYVTVVEDVTLGQIVATATLIIEHKFIHSCAKRGRVEDVVVSDECRGKQLGKLLLSTLTLLSKKLNCYKITLECLPQNVGFYKKFGYTVSEENYMCRRFLK
